This continues a long series; more values of the same kind are listed elsewhere.
Test system: distal small bowel gene expression
Assay: RNA sequencing / transcriptional analysis of small bowel 56 days after ICR (2′-FL signature response)
Type: in vivo, mouse
From the text: Luminal small bowel contents were expressed into AllProtect Tissue Reagent (Qiagen Inc, CA). Bacterial DNA was extracted using the AllPrep DNA/RNA Mini Kit (Qiagen Inc, CA), according to kit instructions and prior to sequencing (described below). Small bowel tissue samples for RNA were placed into RNA Later (Life Technologies, NY). RNA extraction was accomplished following Qiagen RNeasy Plus Kit instruction (Qiagen Inc, CA). All nucleic acid samples were then stored at -80 Celsius until sequenced (described below). Transcriptional analysis was carried out on resected and harvested small bowel samples obtained from operated mice taken to 8 weeks. Murine RNA sequencing libraries were prepared from approximately 1.5 μg RNA using the TruSeq RNA Sample Preparation Kit (Illumina, Calif.) and sequenced using the HiSeq 2000 Sequencing System (Illumina, Calif.) with single-end 50 bp reads. Following removal of primers and barcodes, sequences were aligned to the mm10 genome using reference annotations from UCSC (Rosenbloom et al. (2015) Nucleic acids research 43: […]-681) (n=36,186 entities). Aligned reads were quantified and used to compute reads per kilobase per million mapped reads (RPKM); raw counts were then normalized using the DESeq algorithm and each harvested sample was baselined to its own resected sample. A filter was applied to the data, requiring at least three reads in all samples of at least one of the four experimental conditions (n=14,489 entities). The data discussed in this publication have been deposited in NCBI's Gene Expression Omnibus and are accessible through NCBI Gene Expression Omnibus (GEO) Series accession number GSE72590. Edgar et al. (2002) Nucleic acids research 30: 207-210. In order to characterize the impact of 2'-FL supplementation while accounting for the effect of ileoecal resection, a t-test was applied between resected and harvested samples within control and experimental animals. Significance was set at a p-value of ≤0.05 and a fold change of 3, which generated 2,576 differentially regulated entities across two comparisons. Gene set unions and intersections of the control and experimental gene sets were identified through Venn diagrams. From the master list, the gene list specific to animals supplemented with 2'-FL were removed in order to identify genes differentially regulated only by ICR (n=546 entities); this gene set characterizes the adaptive response. Further, the 2'-FL response (n=2,030 entities) was identified by removing the adaptive response signature described above from the master list, leaving only genes regulated by 2'-FL supplementation after ICR which were not found in the non-supplemented adaptive response. Heatmaps were generated using hierarchical clustering with the Pearson's Centered distance metric and the average linkage rule; both entities and samples were clustered. All genomic analyses described above were performed in Strand NGS (Strand Life Sciences, CA). Gene list functional enrichment was initially discovered using ToppFun, a member of the ToppGene Suite. Chen et al. (2009) Nucleic acids research 37: […]-311. No statistical correction was selected. Gene lists were further analyzed using ClueGO, a plugin for Cytoscape designed to decipher functionally grouped gene ontology and pathway annotation networks. Bindea et al. (2009) Bioinformatics 25: 1091-1093. At the time of data analysis, the annotation files were updated from sources to Jan. 1, 2015. “GO Term Fusion” was enabled to manage ontologic term redundancy and network specificity was set to medium. Results were restricted to pathways with p≤0.05 using Benjamini-Hochberg correction and Kappa scoring was set to 0.4. Biocyc annotations were assigned a rectangle, gene ontology biologic processes were assigned an ellipse, and […] annotations were assigned a diamond shape. No meaning was assigned to size or color. […]

C[C@@H]1O[C@@H](O[C@H]2[C@H](O[C@H]3[C@H](O)[C@@H](O)C(O)O[C@@H]3CO)O[C@H](CO)[C@H](O)[C@@H]2O)[C@@H](O)[C@H](O)[C@@H]1O (stereo partly drawn) [2′-FL, 2′-fucosyllactose]
Fold Change (Pre- to Post-op) (Xcl1): 3.202
Fold Change (Pre- to Post-op) (Xlr): 4.095
Fold Change (Pre- to Post-op) (Zfp2): 3.418
Fold Change (Pre- to Post-op) (Zfp53): 3.119
Fold Change (Pre- to Post-op) (Zfp92): 7.306
Fold Change (Pre- to Post-op) (Znhit3): 5.716
Fold Change (Pre- to Post-op) (gene 4-Mar): −3.709
Fold Change (Pre- to Post-op) (gene 8-Sep): −3.058
Fold Change (Pre- to Post-op) (gene 1500004A13Rik): −7.779
Fold Change (Pre- to Post-op) (gene 2310067B10Rik): −4.412
Fold Change (Pre- to Post-op) (gene 2410004B18Rik): 3.038
Fold Change (Pre- to Post-op) (gene 2900026A02Rik): −4.697
Fold Change (Pre- to Post-op) (gene 4833424O15Rik): −4.785
Fold Change (Pre- to Post-op) (gene 4833432E10Rik): −4.036
Fold Change (Pre- to Post-op) (gene 4922501C03Rik): −6.352
Fold Change (Pre- to Post-op) (gene 4930470H14Rik): −5.531
Fold Change (Pre- to Post-op) (gene 4933417A18Rik): −3.706
Fold Change (Pre- to Post-op) (gene 5031414D18Rik): −6.733
Fold Change (Pre- to Post-op) (gene 5330417C22Rik): −6.513
Fold Change (Pre- to Post-op) (gene 6330408A02Rik): −5.107
Fold Change (Pre- to Post-op) (gene 6430548M08Rik): −3.559
Fold Change (Pre- to Post-op) (gene 6530402F18Rik): −4.826
Fold Change (Pre- to Post-op) (gene 9330159F19Rik): −5.945
Fold Change (Pre- to Post-op) (gene 9430020K01Rik): −3.69
Fold Change (Pre- to Post-op) (gene 9530026P05Rik): −4.147
Fold Change (Pre- to Post-op) (gene 9930021J03Rik): −3.702
Fold Change (Pre- to Post-op) (gene A4gnt): −3.049
Fold Change (Pre- to Post-op) (gene A430033K04Rik): −3.457
Fold Change (Pre- to Post-op) (gene A530020G20Rik): −4.03
Fold Change (Pre- to Post-op) (gene A630081J09Rik): −4.427
Fold Change (Pre- to Post-op) (gene AI661453): −4.477
Fold Change (Pre- to Post-op) (gene Abca3): −5.574
Fold Change (Pre- to Post-op) (gene Abcc1): −3.364
Fold Change (Pre- to Post-op) (gene Abcc4): −3.37
Fold Change (Pre- to Post-op) (gene Abcc9): −4.38
Fold Change (Pre- to Post-op) (gene Abcd2): −7.23
Fold Change (Pre- to Post-op) (gene Abl1): −4.067
Fold Change (Pre- to Post-op) (gene Abl2): −6.401
Fold Change (Pre- to Post-op) (gene Ablim2): −6.48
Fold Change (Pre- to Post-op) (gene Acaca): −4.829
Fold Change (Pre- to Post-op) (gene Acacb): −4.267
Fold Change (Pre- to Post-op) (gene Ace): −5.246
Fold Change (Pre- to Post-op) (gene Ache): −7.968
Fold Change (Pre- to Post-op) (gene Acin1): −3.533
Fold Change (Pre- to Post-op) (gene Actn1): −3.794
Fold Change (Pre- to Post-op) (gene Acvr1b): −4.313
Fold Change (Pre- to Post-op) (gene Acvr2b): −3.139
Fold Change (Pre- to Post-op) (gene Adam12): −3.327
Fold Change (Pre- to Post-op) (gene Adam19): −5.06
Fold Change (Pre- to Post-op) (gene Adam23): −6.411
Fold Change (Pre- to Post-op) (gene Adamtsl3): −5.144
Fold Change (Pre- to Post-op) (gene Adamtsl4): −6.749
Fold Change (Pre- to Post-op) (gene Adcy1): −7.314
Fold Change (Pre- to Post-op) (gene Adcy9): −4.853
Fold Change (Pre- to Post-op) (gene Adcyap1r1): −5.913
Fold Change (Pre- to Post-op) (gene Adhfe1): −4.424
Fold Change (Pre- to Post-op) (gene Adipoq): −6.67
Fold Change (Pre- to Post-op) (gene Adrbk2): −4.017
Fold Change (Pre- to Post-op) (gene Aebp1): −4.872
Fold Change (Pre- to Post-op) (gene Agap1): −3.615
Fold Change (Pre- to Post-op) (gene Ago1): −3.623
Fold Change (Pre- to Post-op) (gene Ago2): −5.249
Fold Change (Pre- to Post-op) (gene Ahdc1): −5.847
Fold Change (Pre- to Post-op) (gene Akap2): −5.63
Fold Change (Pre- to Post-op) (gene Akap12): −8.622
Fold Change (Pre- to Post-op) (gene Akap13): −8.027
Fold Change (Pre- to Post-op) (gene Akna): −5.832
Fold Change (Pre- to Post-op) (gene Alppl2): −5.838
Fold Change (Pre- to Post-op) (gene Als2): −3.126
Fold Change (Pre- to Post-op) (gene Amer1): −4.883
Fold Change (Pre- to Post-op) (gene Amotl1): −4.829
Fold Change (Pre- to Post-op) (gene Amotl2): −4.67
Fold Change (Pre- to Post-op) (gene Ampd2): −3.56
Fold Change (Pre- to Post-op) (gene Angel1): −5.704
Fold Change (Pre- to Post-op) (gene Ank2): −4.668
Fold Change (Pre- to Post-op) (gene Ankrd11): −6.322
Fold Change (Pre- to Post-op) (gene Ankrd35): −5.751
Fold Change (Pre- to Post-op) (gene Ankrd63): −4.472
Fold Change (Pre- to Post-op) (gene Anks1): −4.241
Fold Change (Pre- to Post-op) (gene Anks6): −7.123
Fold Change (Pre- to Post-op) (gene Ano7): −5.737
Fold Change (Pre- to Post-op) (gene Ano8): −3.835
Fold Change (Pre- to Post-op) (gene Antxr1): −3.495
Fold Change (Pre- to Post-op) (gene Aoc3): −6.132
Fold Change (Pre- to Post-op) (gene Aox1): −6.358
Fold Change (Pre- to Post-op) (gene Ap2a1): −3.359
Fold Change (Pre- to Post-op) (gene Ap3b2): −4.515
Fold Change (Pre- to Post-op) (gene Apba2): −3.441
Fold Change (Pre- to Post-op) (gene Apbb1ip): −6.816
Fold Change (Pre- to Post-op) (gene Apc): −3.693
Fold Change (Pre- to Post-op) (gene App): −3.172
Fold Change (Pre- to Post-op) (gene Aqr): −3.528
Fold Change (Pre- to Post-op) (gene Arfgef2): −3.468
Fold Change (Pre- to Post-op) (gene Arhgap20): −5.715
Fold Change (Pre- to Post-op) (gene Arhgap23): −8.447
Fold Change (Pre- to Post-op) (gene Arhgap31): −3.584
Fold Change (Pre- to Post-op) (gene Arhgap32): −3.618
Fold Change (Pre- to Post-op) (gene Arhgef10): −5.663
Fold Change (Pre- to Post-op) (gene Arhgef10l): −3.258
Fold Change (Pre- to Post-op) (gene Arhgef11): −4.867
Fold Change (Pre- to Post-op) (gene Arhgef12): −3.668
Fold Change (Pre- to Post-op) (gene Arhgef15): −7.458
Fold Change (Pre- to Post-op) (gene Arhgef17): −4.97
Fold Change (Pre- to Post-op) (gene Arhgef40): −3.866
Fold Change (Pre- to Post-op) (gene Arid1a): −5.133
Fold Change (Pre- to Post-op) (gene Arid3a): −3.299
Fold Change (Pre- to Post-op) (gene Arid5a): −3.254
Fold Change (Pre- to Post-op) (gene Armcx4): −7.289
Fold Change (Pre- to Post-op) (gene Arsb): −3.029
Fold Change (Pre- to Post-op) (gene Asap2): −3.409
Fold Change (Pre- to Post-op) (gene Ash1l): −4.598
Fold Change (Pre- to Post-op) (gene Asic2): −3.543
Fold Change (Pre- to Post-op) (gene Astn2): −4.06
Fold Change (Pre- to Post-op) (gene Atf7): −8.82
Fold Change (Pre- to Post-op) (gene Atf7ip): −5.458
Fold Change (Pre- to Post-op) (gene Atp1a3): −7.338
Fold Change (Pre- to Post-op) (gene Atp2a2): −3.186
Fold Change (Pre- to Post-op) (gene Atp2a3): −3.405
Fold Change (Pre- to Post-op) (gene Atp2b4): −4.839
Fold Change (Pre- to Post-op) (gene Atp10a): −3.252

Reference: patent US10857167B2, “Use of oligosaccharide compositions to enhance weight gain” (Children's Hospital Medical Center, priority 2015, dated 2020)
